PubChem BioAssay AID493246, Drosophila RNAi Screening Center, 2011
In all, the deposit lists about 21,000 reagents; this is a random part of those with a known target gene and a result. In the full data, 429 (2%) are marked active. 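Values are raw and not normalised between plates; calls rest on per-plate z-scores that were not deposited.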 Unmarked entries are inactive. A plus sign joins genes that one reagent is predicted to hit. Reagent sequences are not shown. The record does not give: the amount of reagent, the time to read-out.

Aim: 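Identify essential fly genes by loss of cell viability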 (primary screen)
Cell system: Drosophila Kc and S2R+ cells
Reagents: long dsRNA against Drosophila genes
Detection: 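Cell number per well after knock-down, printed as raw plate values; calls were based on per-plate z-scores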
Reading the numbers: Kc cell number and S2R+ cell number: higher = more cells remaining
Call rule: 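Counted as a hit if cell number falls by a z-score of at least 3 within its plate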

Against dac (dachshund) [DRSC03518] the deposit lists Kc cell number, rep 1 = 1.73e6; Kc cell number, rep 2 = 1.70e6; S2R+ cell number, rep 1 = 1.32e6; S2R+ cell number, rep 2 = 1.57e6.
Depletion of hppy (happyhour) [DRSC07014] came out at: Kc cell number, rep 1 = 1.57e6; Kc cell number, rep 2 = 1.55e6; S2R+ cell number, rep 1 = 1.17e6; S2R+ cell number, rep 2 = 1.25e6.
Knock-down of hppy (happyhour) [DRSC07015] resulted in: Kc cell number, rep 1 = 1.58e6; Kc cell number, rep 2 = 1.56e6; S2R+ cell number, rep 1 = 1.20e6; S2R+ cell number, rep 2 = 1.38e6.
hppy (happyhour) [DRSC07016] showed Kc cell number, rep 1 = 1.60e6; Kc cell number, rep 2 = 1.58e6; S2R+ cell number, rep 1 = 1.25e6; S2R+ cell number, rep 2 = 1.34e6.
Knock-down of AOX4 (Aldehyde oxidase 4) [DRSC15337] came out at: Kc cell number, rep 1 = 1.37e6; Kc cell number, rep 2 = 1.42e6; S2R+ cell number, rep 1 = 1.10e6; S2R+ cell number, rep 2 = 1.17e6.
For Hira [DRSC18672], the entry reads Kc cell number, rep 1 = 1.56e6; Kc cell number, rep 2 = 1.60e6; S2R+ cell number, rep 1 = 9.95e5; S2R+ cell number, rep 2 = 1.09e6.
After knock-down of Rgl (Ral guanine nucleotide dissociation stimulator-like) [DRSC11267], the screen gave Kc cell number, rep 1 = 1.76e6; Kc cell number, rep 2 = 1.79e6; S2R+ cell number, rep 1 = 1.39e6; S2R+ cell number, rep 2 = 1.41e6.
Knock-down of CG13843 [DRSC14693] came out at: Kc cell number, rep 1 = 1.70e6; Kc cell number, rep 2 = 1.71e6; S2R+ cell number, rep 1 = 9.51e5; S2R+ cell number, rep 2 = 1.08e6.
CG1344 [DRSC04837] showed Kc cell number, rep 1 = 1.37e6; Kc cell number, rep 2 = 1.42e6; S2R+ cell number, rep 1 = 1.09e6; S2R+ cell number, rep 2 = 1.14e6.
Against ste24c + CG30461 [DRSC05639], the values are Kc cell number, rep 1 = 5.32e5; S2R+ cell number, rep 1 = 7.66e5.
ste24c + CG30461 [DRSC07316] gave Kc cell number, rep 1 = 1.53e6; Kc cell number, rep 2 = 1.57e6; S2R+ cell number, rep 1 = 1.21e6; S2R+ cell number, rep 2 = 1.34e6.
Against Duox (Dual oxidase) [DRSC00571], the values are Kc cell number, rep 1 = 1.60e6; Kc cell number, rep 2 = 1.59e6; S2R+ cell number, rep 1 = 1.04e6; S2R+ cell number, rep 2 = 1.20e6.
Depletion of CG33298 [DRSC02210] resulted in: Kc cell number, rep 1 = 1.47e6; Kc cell number, rep 2 = 1.52e6; S2R+ cell number, rep 1 = 1.20e6; S2R+ cell number, rep 2 = 1.38e6.
With knock-down of CG33298 [DRSC02672] the results were Kc cell number, rep 1 = 1.45e6; Kc cell number, rep 2 = 1.56e6; S2R+ cell number, rep 1 = 1.03e6; S2R+ cell number, rep 2 = 1.05e6.

Limited to “Kc cell number, rep 2”, for 2 of the entries above:
CG33298 [DRSC02210] = 1.52e6
CG33298 [DRSC02672] = 1.56e6
